Taken from: PubChem BioAssay AID1259284 (Sanger Institute, 2017)
This is a random part of 794 deposited reagents. 16 of all reagents (2%) were called active. 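Calls concern knock-down without drug only; drug synergy was judged apart, with scores above 0.15 taken as synergy.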 Unmarked entries are inactive. Further read-outs or replicates are left out here. Not given: the amount of reagent, the time to read-out.

- Purpose: 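siRNA screen across the kinome seeking partners for BYL719, cetuximab or trametinib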 (primary screen)
- Cell system: SW48 human colorectal cancer cells
- Knock-down reagent: siRNA pool against human genes
- Conditions: anchor drug BYL719 at 1 µM, cetuximab at 5 µg/ml or trametinib at 10 nM, or DMSO vehicle alone
- Read-out: 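Cell viability relative to non-targeting pool wells, replicate mean, with robust z-scores and drug synergy scores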
- Reading the numbers: robust z-score, no drug: higher = more cells survive knock-down
- Active means: 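Called essential when the robust z-score of viability without drug falls below -3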
- Meaning of the calls: active = essential without drug; inactive = no change without drug

Depletion of SPEG (striated muscle enriched protein kinase) resulted in: robust z-score, no drug 0.426.
EFNA4 (ephrin A4) gave robust z-score, no drug 0.426.
Depletion of NUAK2 (NUAK family kinase 2) gave: robust z-score, no drug 0.426.
TAOK1 (TAO kinase 1) scored robust z-score, no drug -0.967.
Depletion of PFKFB1 (6-phosphofructo-2-kinase/fructose-2,6-biphosphatase 1) resulted in: robust z-score, no drug 0.426.
Against DAPK2 (death associated protein kinase 2) the deposit lists robust z-score, no drug 0.426.

Copied from the entries so far for reference:
SPEG (striated muscle enriched protein kinase): robust z-score, no drug = 0.426
EFNA4 (ephrin A4): robust z-score, no drug = 0.426

Additional reagents:
EPHA8 (EPH receptor A8) scored robust z-score, no drug 0.426.
MAPK13 (mitogen-activated protein kinase 13) gave robust z-score, no drug 0.426.
With knock-down of PIKFYVE (phosphoinositide kinase, FYVE-type zinc finger containing) the results were robust z-score, no drug 0.426.
Silencing of PIK3R4 (phosphoinositide-3-kinase regulatory subunit 4) resulted in: robust z-score, no drug 0.426.
Against SRC (SRC proto-oncogene, non-receptor tyrosine kinase), the values are robust z-score, no drug 0.426.
Silencing of CDK12 (cyclin dependent kinase 12) came out at: robust z-score, no drug -0.812.
